These are yes or no findings as the source states them, for the method shown. Some binding calls cover weakened binding; strength is not graded here.
Columns and labels:
[1] = molecular target: recombinant human CD30L (human) (UniProt P32971); assay: ELISA, binding to rhCD30L (OD 450 nm)
[2] = molecular target: cynomolgus CD30L expressed on HEK293 cells (cynomolgus); assay: flow cytometry, Cell Binding to HEK293-cyCD30L (MFI)
[3] = molecular target: recombinant cynomolgus CD30L (cynomolgus); assay: ELISA, Neutralization of CD30-Fc binding to immobilized cyno CD30L (Absorbance 450 nm)
[4] = molecular target: cynomolgus CD30L expressed on HEK293 cells (cynomolgus); assay: flow cytometry, HEK293-cyCD30L/CD30-Fc Neutralization: blocking of CD30-Fc binding to HEK293-cyCD30L cells
[5] = molecular target: recombinant cynomolgus CD30L (cynomolgus); assay: ELISA, Binding to CD30L, immobilized cyno CD30L (Absorbance 450 nm)
[6] = molecular target: recombinant cynomolgus CD30L protein (cynomolgus); assay: ELISA, purified cyno CD30L
[7] = molecular target: cynomolgus CD30L expressed on cells (cynomolgus); assay: flow cytometry, HEK293 cells expressing cyno CD30L
[8] = molecular target: recombinant cynomolgus CD30L protein (cynomolgus); assay: KinExA, Fab

Amino acid sequences for entries named in this document (tags omitted). Residues count along the entry.
UniProt P32971, residues 63-234: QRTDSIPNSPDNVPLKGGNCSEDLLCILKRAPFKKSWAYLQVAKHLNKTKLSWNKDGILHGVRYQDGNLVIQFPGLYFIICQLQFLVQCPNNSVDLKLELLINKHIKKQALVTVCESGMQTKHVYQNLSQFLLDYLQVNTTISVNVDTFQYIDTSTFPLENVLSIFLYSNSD

B1: anti-CD30L antibody clone 63 (antibody, V domains shown)
VH: EVQLVESGGGLVQPGGSLRLSCAASGFMFSSYSMNWVRQAPGKGLEWVSYISSSSSTIYDADSVKGRFTISRDDAKNSLYLQMNSLRDEDTAVYYCTREAYPGYYYNYMDVWGKGTTVTVSS
VL: DIQMTQSPSSLSASVGDRVTITCRASQSISSRLAWYQQKPGKAPNLLIYKASNLESGVPSRFSGSGSGTEFTLTISSLQPDDFATYYCQQYNSYSRTFGQGTKVEIK
[1]
  binding: binds

B2: anti-CD30L antibody clone 80 (antibody, V domains shown)
VH: EVQLVESGGGLVQPGGSLRLSCEVSGFTFSSYDMHWVRQVTGTGLEWVSSIGIGGDTYYPGSVKGRFTISRENAKNSLYLQMNSLRGGDTGVYYCARGEWDLLWYFMDVWGKGTTVTVSS
VL: DIQMTQSPSSLSASIGDRVTITCRASQGISSWLAWYQQKPGKAPKLLIYAASSLQSGVPSRFSGSGSGTDFTLTISSLQPEDFATYYCQQANSFPLTFGGGTKVEIK
[1]
  binding: binds

B3: anti-CD30L antibody clone 82 (antibody, V domains shown)
VH: EVQLVESGGGLVQPGGSLRLSCAVSGITFSNAWMSWVRQAPGKGLEWVGRIKSKTYGGTTDYAAPVKGRFIISRDDSKDTLYLQMNSLKTEDTAIYYCTTDPWNYVNYNYFMDVWGKGTTVTVSS
VL: DIQMTQSPSSLSASVGDRVTITCRASQDIRNYLAWYQQKPGKITHLLVYAASTLQSGVPSRFSGSGSGTDFTLTINSLQPEDVATYYCQNYFSVPLTFGGGTKVEIK
[1]
  binding: binds

B4: anti-CD30L antibody clone 2 germlined (antibody, V domains shown)
VH: EVQLVESGGGLVQPGRSLRLSCAASGFNFDDYAMHWVRQAPGKGLEWVSGISWRSGNIGYADSVKGRFTISRDNAKNSLYLQMNSLRAEDTALYYCAKDKGIGFNWNYEGFDYWGQGTLVTVSS
VL: DIQMTQSPSSLSASVGDRVTITCRASQGISNHLAWFQQKPGKAPKSLIYAASSLQSGVPSRFSGSGSGTDFTLTISSLQPEDFATYYCQQYVTYPLTFGGGTKVEIK
[2]
  binding: binds
[3]
  binding: binds
[4]
  binding: binds
[5]
  binding: binds

B5: anti-CD30L antibody clone 1 with IgG1 constant region SEQ ID NO: 502 (antibody, V domains shown)
VH: QVQLQESGPGLVKPSETLSLTCTVSGGSISGYYWSWIRQPPVKGLEWIGYIFYSGYTKYNPSLKSRVTISVDTSKNQFSLKLSSVTAADTAVYYCARDRWDFDYWGQGALVTVSS
VL: AIQMTQSPSYLSASVGDRVTIACRASQGIRNNLGWYQQKPGKAPKLLIYAESSLQSGVPSRFSGSGSGTDFTLTISSLQPEDFATYYCLQDFNYPYTFGQGTKLEIK
[6]
  binding: binds
[7]
  binding: binds

B6: anti-CD30L antibody clone 2 with IgG1 constant region SEQ ID NO: 502 (antibody, V domains shown)
VH: EVQLVESGGGLVQPGRSLRLSCAASGFNFDDYAMHWVRQAPGKGLEWVSGISWRSGNIGYAGSVKGRFTISRDNAKNSLYLQMNSLRPEDSALYYCAKDKGIGFNWNYEGFDYWGQGTLVTVSS
VL: DIQMTQSPSSLSASVGDRVTITCRASQGISNHLAWFQQKPGKAPKSLIYAASSLQSGVPSKFSGSGSGTDFTLTISSLQPEDFATYYCQQYVTYPLTFGGGTKVEIK
[6]
  binding: binds
[7]
  binding: binds

B7: Fab of clone 2 germlined (Fab, V domains shown)
VH: EVQLVESGGGLVQPGRSLRLSCAASGFNFDDYAMHWVRQAPGKGLEWVSGISWRSGNIGYADSVKGRFTISRDNAKNSLYLQMNSLRAEDTALYYCAKDKGIGFNWNYEGFDYWGQGTLVTVSS
VL: DIQMTQSPSSLSASVGDRVTITCRASQGISNHLAWFQQKPGKAPKSLIYAASSLQSGVPSRFSGSGSGTDFTLTISSLQPEDFATYYCQQYVTYPLTFGGGTKVEIK
[8]
  binding: binds

Source: patent publication US20240254246A1
